Results taken from patent US5126227A, “High contrast photographic elements containing ballasted hydrophobic isothioureas” (priority 1990, dated 1992).
Several values for one entry are separate records, joined by “and”; a condition that tells them apart may be missing. Equal entries are not always repeated.

Experiments:
[1] = Sensitometry (speed, practical density point/shoulder density) of nucleated silver halide film versus control without isothiourea; conditions: for Delta PDP (practical density point): Test PDP - Control PDP, density at 0.4 log E past speed point; for Delta Log Speed: versus control
Procedure: (§1) Each coating used in obtaining the data provided in these examples was prepared on a polyester support, using a monodispersed 0.24 μm AgBrI (2.5 mol % iodide) iridium-doped emulsion at 3.51 g/m^2 Ag, 2.54 g gel/m^2, and 1.08 g latex/m^2 where the latex is a copolymer of methyl acrylate, 2-acrylamido-2-methylpropane sulfonic acid, and 2-acetoacetoxyethylmethylacrylate. The silver halide emulsion was spectrally sensitized with 214 mg/Ag mol of anhydro-5,5'-dichloro-9-ethyl-3,3'-di-(3-sulfopropyl) oxacarbocyanine hydroxide, triethylene salt and the emulsion layer was overcoated with gelatin containing polymethylmethacrylate beads. The nucleating agent was added as a methanol solution to the emulsion melts at a level of 0.75 millimoles (mM) per mole of silver. The compound employed as the nucleating agent is represented by the formula: [drawing 24]
(§2) An "incorporated booster" was added as a methanol solution in an amount of 2 grams per mole of silver. The compound employed as the "incorporated booster" is represented by the formula: [drawing 25] where Pr represents n-propyl.
(§3) Coatings were exposed for five seconds to a 3000° K. tungsten light source and processed for 1 minute at 35° C. in the developer solution.
(§4) To prepare the developer solution, a concentrate was prepared from the following ingredients:
(§5) The concentrate was diluted at a ratio of one part of concentrate to two parts of water to produce a working strength developing solution with a pH of 10.5.
(§6) An electronic image analyzer was used to scan processed unexposed samples and count the number of pepper fog spots (>10 micrometer diameter) contained in an area of 600 square millimeters. Standard sensitometry exposures were processed and analyzed to monitor speed and shoulder density effects.
(§7) In each of examples 1, 6, 7 and 8, the isothiourea was employed in the form of the free base, in examples 3, 4, 5, 9, 10, 11, 12, 13, 14, 15, 16 and 17 in the form of the hydrobromide salt, and in example 2 in the form of the dihydrochloride salt. In comparative tests A to D, the isothiourea was employed in the form of the hydrobromide salt and in comparative tests E to H in the form of the free base.
(§8) Sensitometry parameters are expressed in Table I in terms of the change produced by incorporation of the isothiourea compound versus the control which contained no isothiourea compound and was processed under identical conditions. Values are reported for speed, practical density point (PDP) and pepper fog (PF). Therefore, the changes in speed, practical density point and pepper fog produced by the isothiourea compound are directly recorded in the table. By definition, the delta log speed, delta PDP and delta log PF for the control are zero.

[2] = Pepper fog spot count by electronic image analyzer on processed unexposed samples; conditions: versus control; for Delta Log PF (pepper fog): spots >10 micrometer in 600 square millimeters
Procedure: as §1, §2, §3, §4, §5, §6, §7, §8

[3] = Image spread: rate of halftone dot diameter growth during development; conditions: first 60 seconds of development, control 0.68
Procedure: as §1, §2, §3, §4, §5
Certain of the films were analyzed for the effect upon image spread of the incorporated isothiourea compound. The rate of change of halftone dot diameter with processing time was determined by monitoring the change in integrated density of a contact-exposed 10% tint pattern during the first 60 seconds of development and converting the integrated density to equivalent dot size.

[4] = 1.0 millimoles isothiourea per mole of silver
[5] = 1.0 millimoles per mole of silver
[6] = 0.4 millimoles isothiourea per mole of silver
[7] = 0.5 millimoles isothiourea per mole of silver

Row | SMILES | Delta PDP (practical density point) [1, 4] | Delta Log Speed [1, 4] | Delta Log PF (pepper fog) [2, 4] | Dot Growth Rate [3, 5] [micron/sec] | further results
1 | N=C(N)SCCCCS(=O)(=O)O [Comparative test G, reference compound] | +0.13 | -0.01 | -0.08 |  | 
2 | CC(CCSC(=N)N)S(=O)(=O)O (centres unmarked) [Comparative test H, reference compound] | +0.15 | -0.01 | -0.12 |  | 
3 | Cc1cc(C)c(S(=O)(=O)NCCSC(=N)N)c(C)c1 [Example 11] | +0.12 | -0.07 | -0.65 | 0.50 | 
4 | CCCCCCCCCCCCCCCCSC(=N)N [Example 16] | -0.18 | -0.07 | -1.46 |  | 
5 | N=C(N)SCCCCCCCCCCC(=O)O [Comparative test A, reference compound] | +0.06 | 0.00 | -0.01 |  | 
6 | CCOC(=O)CCCCCCCCCCSC(=N)N [Example 5] | +0.33 | -0.05 | -0.79 |  | 
7 | CC(C)c1cc(C(C)C)c(S(=O)(=O)NCCSC(=N)N)c(C(C)C)c1 [Example 13] |  | -0.08 and -0.09 | -1.18 and -1.07 | 0.47 | Delta PDP (practical density point) [1, 6]: +0.02; Delta Log Speed [1, 6]: -0.04; Delta Log PF (pepper fog) [2, 6]: -0.46
8 | CCCCCCOCCOCCOCCOCCSC(=N)N [Example 6] | -0.24 | -0.05 | -0.41 |  | 
9 | N=C(N)SCCCCCCCCCCSC(=N)N [Example 15] |  |  |  |  | Dot Growth Rate ([3]; 0.5 millimoles per mole of silver): 0.51 micron/sec; Delta PDP (practical density point) [1, 7]: +0.23; Delta Log Speed [1, 7]: -0.05; Delta Log PF (pepper fog) [2, 7]: -0.57
10 | CCCCSC(=NCC)NCC [Comparative test C, reference compound] | -0.05 | +0.01 | +0.05 | 0.62 | 
11 | Cc1cc(C)c(S(=O)(=O)NCCCSC(=N)N)c(C)c1 [Example 12] | -0.12 | -0.04 | -0.49 | 0.57 | 
12 | N=C(N)SCCS(=O)(=O)O [Comparative test E, reference compound] | -0.10 | 0.00 | -0.45 |  | 
13 | N=C(N)SCCCCCCCCCCCCSC(=N)N [Example 17] |  |  |  |  | Delta PDP (practical density point) [1, 7]: -0.07; Delta Log Speed [1, 7]: -0.04; Delta Log PF (pepper fog) [2, 7]: -0.59
14 | CCCCOCCOCCOCCOCCSC(=N)N [Example 1] | -0.11 | -0.01 | -0.17 |  | reduction of the number of pepper fog spots [2]: about three
15 | CCCCCCCCOCCOCCOCCOCCSC(=N)N [Example 7] | -0.27 | -0.02 | -0.58 |  | 
16 | CCCCCCCCSC(=N)N [Example 3] | +0.08 | 0.00 | -0.63 | 0.51 | 
17 | CC(C)c1cc(C(C)C)c(S(=O)(=O)NCCCSC(=N)N)c(C(C)C)c1 [Example 14] | +0.11 | -0.09 | -0.96 | 0.50 | Delta PDP (practical density point) [1, 6]: -0.11; Delta Log Speed [1, 6]: -0.05; Delta Log PF (pepper fog) [2, 6]: -0.43
18 | CC(C)(C)c1ccc(CSC(=N)N)cc1 [Example 10] | +0.01 | -0.02 | -0.55 | 0.53 | 
19 | N=C(N)SCCCS(=O)(=O)O [Comparative test F, reference compound] | +0.08 | +0.02 | -0.04 |  | 
20 | CCCCSC(=N)N [Comparative test B, reference compound] | -0.17 | -0.05 | +0.06 |  | 
21 | N=C(N)SCc1c(Cl)cccc1Cl [Example 9] | +0.25 | -0.02 | -0.52 | 0.47 | 
22 | CCCCN=C(NCCCC)SCCCC [Comparative test D, reference compound] | +0.27 | +0.02 | +0.16 | 0.64 | 
23 | CCCCCCCCCCOCCOCCOCCOCCSC(=N)N [Example 8] | -0.43 | -0.03 | -0.47 |  | 
24 | CCCCN(CCCC)CCSC(=N)N [Example 2] | -0.36 | -0.11 | -2.04 |  | Delta PDP (practical density point) [1, 6]: -0.29; Delta Log Speed [1, 6]: -0.08; Delta Log PF (pepper fog) [2, 6]: -0.87; reduction of the number of pepper fog spots [2]: about one hundred
25 | CCCCCCCCCCCCSC(=N)N [Example 4] |  | -0.03 and -0.08 | -1.46 and -1.16 | 0.40 | Delta PDP (practical density point) [1, 6]: -0.09; Delta Log Speed [1, 6]: -0.04; Delta Log PF (pepper fog) [2, 6]: -0.56
